Drawing on publication PMC5642520, this text covers binding for 2 substances.

Amino acid sequences for entries named in this document (tags omitted). A change or cut given only in a name is not applied to a line headed by its entry.
UniProt Q05655: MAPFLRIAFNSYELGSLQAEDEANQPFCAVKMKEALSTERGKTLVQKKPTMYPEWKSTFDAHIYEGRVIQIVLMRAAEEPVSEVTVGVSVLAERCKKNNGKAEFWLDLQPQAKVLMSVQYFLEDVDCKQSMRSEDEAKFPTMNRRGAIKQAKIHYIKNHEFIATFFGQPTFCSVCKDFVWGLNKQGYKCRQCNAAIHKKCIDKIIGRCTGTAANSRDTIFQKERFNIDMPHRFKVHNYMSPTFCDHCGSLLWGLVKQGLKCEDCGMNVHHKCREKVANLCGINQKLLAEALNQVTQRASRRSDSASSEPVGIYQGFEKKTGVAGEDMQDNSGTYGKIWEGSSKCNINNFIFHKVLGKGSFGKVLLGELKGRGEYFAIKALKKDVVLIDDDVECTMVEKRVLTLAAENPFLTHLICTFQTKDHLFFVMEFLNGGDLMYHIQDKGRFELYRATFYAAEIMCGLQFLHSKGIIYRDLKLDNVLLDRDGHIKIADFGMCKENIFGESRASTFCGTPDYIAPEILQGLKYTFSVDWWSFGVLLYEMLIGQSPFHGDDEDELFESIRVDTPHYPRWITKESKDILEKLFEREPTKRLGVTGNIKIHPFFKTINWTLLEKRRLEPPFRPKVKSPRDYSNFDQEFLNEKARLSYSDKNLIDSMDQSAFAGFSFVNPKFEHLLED
UniProt P40337: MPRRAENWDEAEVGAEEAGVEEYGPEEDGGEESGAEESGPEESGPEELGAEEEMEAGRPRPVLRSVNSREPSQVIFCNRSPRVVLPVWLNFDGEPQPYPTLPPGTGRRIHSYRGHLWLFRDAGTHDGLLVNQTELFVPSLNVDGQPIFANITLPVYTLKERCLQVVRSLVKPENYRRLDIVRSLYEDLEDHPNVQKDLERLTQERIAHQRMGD

Results are given in words; binding and its absence hold for the method and conditions named. Binding seen in cells or lysates may run through a third protein. Some entries that bind do so weakly or less than the wild type.

One test has as its target Flag-PKCδ (UniProt Q05655). The experiment in a line: co-IP; HEK 293T cells transfected with Myc-IL-32β, HA-VHL and Flag-PKCδ together; lysate immunoprecipitated with anti-Flag antibody, immunoblot. On the technique in general: Immunoblotting shows a protein as a band on a membrane.
Test [1] concerns the target HA-VHL (UniProt P40337). The experiment in a line: co-IP; HEK 293T cells transfected with Myc-IL-32β, HA-VHL and Flag-PKCδ together, normoxia or hypoxia chamber for 24 h; lysate immunoprecipitated with anti-HA antibody, immunoblot.
Test [2] deals with HA-VHL (UniProt P40337). Put plainly: co-IP; OVCAR8 cells transfected with Myc-IL-32β, HA-VHL and Flag-PKCδ together, untreated or treated with 150 μM CoCl2 for 24 h; lysate immunoprecipitated with anti-HA antibody, immunoblot.

As to HA-VHL (from UniProt P40337 1-213), the binding result in the test with Flag-PKCδ is given as “binds”.
Consider “Flag-PKCδ (from UniProt Q05655 1-676) (enzyme)”, for which the binding result with HA-VHL [1] and with HA-VHL [2] was “binds” each time.
